The record followed here is publication PMC9091212.

Sequences of proteins named here, by UniProt entry; tags and fusion partners are left off. A change or cut given only in a name is not applied to a line headed by its entry. Residues count along the entry.
UniProt Q05397: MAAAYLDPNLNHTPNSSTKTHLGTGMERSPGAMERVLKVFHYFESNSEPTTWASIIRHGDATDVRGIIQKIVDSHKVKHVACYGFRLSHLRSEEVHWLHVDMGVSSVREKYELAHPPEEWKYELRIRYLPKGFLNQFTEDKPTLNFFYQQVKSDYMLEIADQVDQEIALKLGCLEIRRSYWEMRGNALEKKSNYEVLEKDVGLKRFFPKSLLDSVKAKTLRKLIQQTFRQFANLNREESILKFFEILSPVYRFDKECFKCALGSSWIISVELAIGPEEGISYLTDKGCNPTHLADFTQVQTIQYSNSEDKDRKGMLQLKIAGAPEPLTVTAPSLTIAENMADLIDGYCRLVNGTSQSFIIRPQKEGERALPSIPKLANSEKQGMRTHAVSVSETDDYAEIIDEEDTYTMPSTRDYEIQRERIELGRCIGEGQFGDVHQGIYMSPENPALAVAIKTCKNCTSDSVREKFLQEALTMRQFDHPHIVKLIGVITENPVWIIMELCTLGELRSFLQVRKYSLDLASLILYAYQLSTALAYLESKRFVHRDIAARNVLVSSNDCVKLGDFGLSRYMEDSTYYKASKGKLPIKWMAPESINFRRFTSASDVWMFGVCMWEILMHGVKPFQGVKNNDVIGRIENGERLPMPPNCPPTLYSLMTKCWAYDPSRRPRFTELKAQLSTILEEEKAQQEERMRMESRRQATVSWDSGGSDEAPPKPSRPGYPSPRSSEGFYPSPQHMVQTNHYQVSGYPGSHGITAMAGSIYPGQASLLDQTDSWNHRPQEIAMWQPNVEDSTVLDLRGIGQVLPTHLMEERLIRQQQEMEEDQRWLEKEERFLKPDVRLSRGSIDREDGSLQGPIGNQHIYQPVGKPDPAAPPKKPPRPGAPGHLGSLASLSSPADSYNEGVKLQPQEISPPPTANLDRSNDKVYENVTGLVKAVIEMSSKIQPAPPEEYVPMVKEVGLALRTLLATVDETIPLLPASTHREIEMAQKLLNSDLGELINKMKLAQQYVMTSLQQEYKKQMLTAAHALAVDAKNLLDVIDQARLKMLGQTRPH
UniProt P37173, residues 23-567: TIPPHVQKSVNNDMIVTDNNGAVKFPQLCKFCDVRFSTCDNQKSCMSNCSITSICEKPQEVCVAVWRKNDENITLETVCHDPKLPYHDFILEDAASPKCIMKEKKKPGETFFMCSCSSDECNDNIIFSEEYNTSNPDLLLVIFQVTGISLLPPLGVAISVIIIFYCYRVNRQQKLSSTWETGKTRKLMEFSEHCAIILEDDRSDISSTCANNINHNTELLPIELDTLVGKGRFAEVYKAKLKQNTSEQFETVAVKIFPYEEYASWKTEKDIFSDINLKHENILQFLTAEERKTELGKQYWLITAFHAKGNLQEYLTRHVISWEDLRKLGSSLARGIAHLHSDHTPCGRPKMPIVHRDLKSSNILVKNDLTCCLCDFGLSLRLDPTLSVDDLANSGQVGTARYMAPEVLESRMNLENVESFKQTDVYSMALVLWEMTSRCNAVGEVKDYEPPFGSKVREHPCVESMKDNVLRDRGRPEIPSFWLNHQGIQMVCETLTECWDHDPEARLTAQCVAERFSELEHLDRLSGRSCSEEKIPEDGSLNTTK
UniProt Q15796: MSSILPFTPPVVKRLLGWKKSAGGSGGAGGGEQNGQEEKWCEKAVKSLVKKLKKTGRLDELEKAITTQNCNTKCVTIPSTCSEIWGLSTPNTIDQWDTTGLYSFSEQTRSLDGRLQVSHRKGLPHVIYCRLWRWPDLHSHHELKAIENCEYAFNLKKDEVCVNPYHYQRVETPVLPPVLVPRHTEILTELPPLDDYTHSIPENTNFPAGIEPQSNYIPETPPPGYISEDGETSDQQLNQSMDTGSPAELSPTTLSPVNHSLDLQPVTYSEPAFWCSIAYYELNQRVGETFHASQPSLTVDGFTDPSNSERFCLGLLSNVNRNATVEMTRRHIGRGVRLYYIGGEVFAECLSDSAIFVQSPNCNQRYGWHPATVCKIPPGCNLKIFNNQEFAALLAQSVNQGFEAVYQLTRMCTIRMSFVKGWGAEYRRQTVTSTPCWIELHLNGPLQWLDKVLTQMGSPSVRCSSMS
UniProt P05556: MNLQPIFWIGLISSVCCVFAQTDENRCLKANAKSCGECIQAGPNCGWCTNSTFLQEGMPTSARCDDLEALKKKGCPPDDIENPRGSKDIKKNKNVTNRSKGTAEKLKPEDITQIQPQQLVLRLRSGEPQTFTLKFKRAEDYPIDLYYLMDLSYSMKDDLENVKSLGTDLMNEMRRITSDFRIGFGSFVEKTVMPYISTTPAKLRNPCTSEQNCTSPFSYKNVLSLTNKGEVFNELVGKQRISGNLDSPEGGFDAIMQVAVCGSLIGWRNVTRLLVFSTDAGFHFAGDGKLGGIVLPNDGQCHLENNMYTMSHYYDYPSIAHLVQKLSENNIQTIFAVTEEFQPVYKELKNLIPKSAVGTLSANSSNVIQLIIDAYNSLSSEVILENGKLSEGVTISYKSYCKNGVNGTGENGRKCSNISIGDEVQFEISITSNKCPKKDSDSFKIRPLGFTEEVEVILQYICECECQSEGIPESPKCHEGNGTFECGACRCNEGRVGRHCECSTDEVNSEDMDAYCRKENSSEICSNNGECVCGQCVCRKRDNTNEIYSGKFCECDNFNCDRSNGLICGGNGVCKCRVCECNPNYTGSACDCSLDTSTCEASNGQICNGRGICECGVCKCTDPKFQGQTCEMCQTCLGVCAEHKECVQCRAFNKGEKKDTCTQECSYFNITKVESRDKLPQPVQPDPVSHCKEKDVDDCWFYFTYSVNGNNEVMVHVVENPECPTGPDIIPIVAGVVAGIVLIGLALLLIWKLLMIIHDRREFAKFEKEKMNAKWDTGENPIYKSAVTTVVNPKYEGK

For test [1], the target named is focal adhesion kinase (FAK) (human (endogenous in MDA-MB-231)) (UniProt Q05397). The test is described as follows: co-IP; IP of endogenous FAK from lysates of MDA-MB-231 cells treated with vehicle or TGFβ (5 ng/mL, 2 h), or with vehicle or the FAKi VS-4718 (1 μM, 24 h); western blotting for FAK, TGFβRI and TGFβRII; lysis buffer 1% Triton X-100, 0.5% NP-40, 150 mM NaCl, 10 mM Tris pH 7.4; protein G agarose.

The target is the same in test [2]. The test is described as follows: co-IP; IP of FAK followed by western blotting of Smad2 (Supplementary Fig. 4c); cells and treatment not given. In general terms: Immunoblotting shows a protein as a band on a membrane.
For test [3], the target named is T1, TGFβ receptor type I (TGFβRI) (human (endogenous in MDA-MB-231)) (UniProt P36897).
T1 sequence: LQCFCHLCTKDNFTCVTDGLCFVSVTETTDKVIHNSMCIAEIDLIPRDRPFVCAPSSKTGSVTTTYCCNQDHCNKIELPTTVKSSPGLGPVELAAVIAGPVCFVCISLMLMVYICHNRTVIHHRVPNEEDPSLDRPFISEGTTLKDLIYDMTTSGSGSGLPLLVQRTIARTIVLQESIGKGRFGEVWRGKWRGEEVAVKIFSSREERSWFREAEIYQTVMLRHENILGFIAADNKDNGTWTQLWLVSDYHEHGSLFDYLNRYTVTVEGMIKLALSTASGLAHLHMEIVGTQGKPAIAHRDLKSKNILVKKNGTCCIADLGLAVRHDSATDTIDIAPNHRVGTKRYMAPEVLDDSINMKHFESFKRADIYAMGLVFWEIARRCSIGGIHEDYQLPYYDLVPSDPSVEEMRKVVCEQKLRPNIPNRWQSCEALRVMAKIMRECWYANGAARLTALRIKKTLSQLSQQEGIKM
Briefly: co-IP; IP of endogenous integrin β1 with western blotting of TGFβRI, and reverse IP of TGFβRI with western blotting of integrin β1, from MDA-MB-231 lysates; also from untreated cells (without TGFβ) and with FAK inhibitor treatment.

No constants are given. Whether binding was seen depends on the method and setting. In cells and extracts the contact can be indirect. Some entries that bind do so weakly or less than the wild type.

As to “TGFβ receptor type II (TGFβRII) (from UniProt P37173 23-567)”, the binding result in test [1] is “no binding”.

For the substance Smad2 (from UniProt Q15796 1-467), in test [2], the binding entry is “no binding”.

With “integrin β1 (from UniProt P05556 21-798) (receptor)”, in test [3], the binding result is listed as “binds”.
